In US20230393144A1 one finds binding data, which are given here for one molecule.

Results are given in words; binding and its absence hold for the method and conditions named. Some results given as binding are weak or reduced against the parent protein; the word gives no strength.

In this test the target is anti-CD47 antibody TJC4. The test is described as follows: indirect ELISA / blocking IC50 against anti-CD47 TJC4; own IC50 not given. In general terms: In an ELISA, binding on a coated surface is turned into a signal by an enzyme label.

B1: anti-idiotypic antibody 34D8H11B5 (antibody, V domains shown)
VH: EVQLQQSGPELEKPGASVKISCKASGYSFSDYNMNWVKQGNGESLEWIGYVDPYYGDTRYNQNFKGKATLTVDKSSSTAYMQLKSLTSEDSAVYYCALSETPRAMDYWGQGTSVTVSP
VL: DIVMTQSPATLSVTPGDRVSLSCRASQSISDYLHWYQQKSNESPRLLIKYASQSISGIPSRFSGSGSGSDFTLNINSVEPEDVGVYYCQNGHSLPLTFGAGTKLELK
Regarding B1, the binding entry is on record as “binds”.
